Test results as given in US20060074026A1.
These are yes or no findings as the source states them, for the method shown. For some assays here: In cells and extracts the contact can be indirect. Some results given as binding are weak or reduced against the parent protein; the word gives no strength.

Chains of the proteins cited; added tags and fusions are not shown. Lines headed by an entry give the natural chain unless they say otherwise; changes in a name come on top. Residues count along the entry.
UniProt P02647: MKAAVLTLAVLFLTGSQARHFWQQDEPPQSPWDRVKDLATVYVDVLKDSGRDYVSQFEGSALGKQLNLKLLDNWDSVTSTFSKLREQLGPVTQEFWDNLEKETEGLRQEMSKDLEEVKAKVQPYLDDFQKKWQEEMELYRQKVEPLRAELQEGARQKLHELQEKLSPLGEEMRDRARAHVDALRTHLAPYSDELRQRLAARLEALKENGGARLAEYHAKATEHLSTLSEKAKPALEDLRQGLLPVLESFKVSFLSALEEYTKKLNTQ
UniProt P05164, residues 165-745: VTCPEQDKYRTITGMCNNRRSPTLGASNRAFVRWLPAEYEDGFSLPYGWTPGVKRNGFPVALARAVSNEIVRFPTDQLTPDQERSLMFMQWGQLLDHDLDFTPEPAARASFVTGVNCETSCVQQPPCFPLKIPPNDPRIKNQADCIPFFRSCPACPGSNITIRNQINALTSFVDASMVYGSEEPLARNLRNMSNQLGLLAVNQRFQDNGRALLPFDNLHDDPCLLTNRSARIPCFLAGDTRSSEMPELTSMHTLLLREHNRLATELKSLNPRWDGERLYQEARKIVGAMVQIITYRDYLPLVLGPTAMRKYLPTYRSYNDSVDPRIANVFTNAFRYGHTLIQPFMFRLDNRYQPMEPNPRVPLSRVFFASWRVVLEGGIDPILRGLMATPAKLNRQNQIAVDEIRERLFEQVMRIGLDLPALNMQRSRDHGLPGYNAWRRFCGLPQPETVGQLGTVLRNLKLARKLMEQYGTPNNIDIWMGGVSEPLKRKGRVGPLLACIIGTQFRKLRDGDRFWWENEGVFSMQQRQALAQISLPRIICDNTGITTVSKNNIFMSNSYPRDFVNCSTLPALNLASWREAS

Key:
[1] = molecular target: human apolipoprotein A-I (apoA-I), mature, i.e. minus the signal sequence (human) (UniProt P02647); assay: cross co-immunoprecipitation from healthy-donor plasma supplemented with purified human MPO, Western blot
[2] = molecular target: human apolipoprotein A-I (apoA-I), mature, i.e. minus the signal sequence (human) (UniProt P02647); assay: summary of co-IP and H/D exchange MS; also co-purification of MPO with HDL-like particles from atherosclerotic lesions
[3] = molecular target: human apolipoprotein A-I (apoA-I), mature, i.e. minus the signal sequence (human) (UniProt P02647); assay: hydrogen/deuterium exchange MS, HDL (and apoA-I in POPC lipid disks) with MPO
[4] = molecular target: human apolipoprotein A-I (apoA-I), mature, i.e. minus the signal sequence (human) (UniProt P02647); assay: co-immunoprecipitation, Western blot and Coomassie staining (FIG. 4)
[5] = molecular target: human apolipoprotein A-I (apoA-I), mature, i.e. minus the signal sequence (human) (UniProt P02647); assay: hydrogen/deuterium exchange MS, HDL with human MPO (FIG. 5)

binding [1]: binds
binding [2]: binds
binding [3]: binds
binding [4]: binds
binding [5]: binds
Substance: human myeloperoxidase (MPO; donor: hydrogen peroxide, oxidoreductase, EC 1.11.1.7), purified from human leukocytes (from UniProt P05164 165-745) (enzyme)
